Measurements from US20200131257A1.
These are yes or no findings as the source states them, for the method shown. For part of these data: Binding seen in cells or lysates may run through a third protein. Some binding calls cover weakened binding; strength is not graded here.

The chains behind the UniProt entries cited, without tags or fusion partners. Where a name states a change or a piece, a line headed by the entry shows the natural chain unless it says otherwise. Residues count along the entry.
UniProt Q9NSA1: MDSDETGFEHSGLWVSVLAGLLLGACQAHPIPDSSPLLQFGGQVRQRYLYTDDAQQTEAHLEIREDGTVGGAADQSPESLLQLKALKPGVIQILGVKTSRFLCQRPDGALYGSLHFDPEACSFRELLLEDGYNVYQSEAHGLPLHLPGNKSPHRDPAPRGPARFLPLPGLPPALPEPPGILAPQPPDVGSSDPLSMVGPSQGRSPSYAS
UniProt P11362: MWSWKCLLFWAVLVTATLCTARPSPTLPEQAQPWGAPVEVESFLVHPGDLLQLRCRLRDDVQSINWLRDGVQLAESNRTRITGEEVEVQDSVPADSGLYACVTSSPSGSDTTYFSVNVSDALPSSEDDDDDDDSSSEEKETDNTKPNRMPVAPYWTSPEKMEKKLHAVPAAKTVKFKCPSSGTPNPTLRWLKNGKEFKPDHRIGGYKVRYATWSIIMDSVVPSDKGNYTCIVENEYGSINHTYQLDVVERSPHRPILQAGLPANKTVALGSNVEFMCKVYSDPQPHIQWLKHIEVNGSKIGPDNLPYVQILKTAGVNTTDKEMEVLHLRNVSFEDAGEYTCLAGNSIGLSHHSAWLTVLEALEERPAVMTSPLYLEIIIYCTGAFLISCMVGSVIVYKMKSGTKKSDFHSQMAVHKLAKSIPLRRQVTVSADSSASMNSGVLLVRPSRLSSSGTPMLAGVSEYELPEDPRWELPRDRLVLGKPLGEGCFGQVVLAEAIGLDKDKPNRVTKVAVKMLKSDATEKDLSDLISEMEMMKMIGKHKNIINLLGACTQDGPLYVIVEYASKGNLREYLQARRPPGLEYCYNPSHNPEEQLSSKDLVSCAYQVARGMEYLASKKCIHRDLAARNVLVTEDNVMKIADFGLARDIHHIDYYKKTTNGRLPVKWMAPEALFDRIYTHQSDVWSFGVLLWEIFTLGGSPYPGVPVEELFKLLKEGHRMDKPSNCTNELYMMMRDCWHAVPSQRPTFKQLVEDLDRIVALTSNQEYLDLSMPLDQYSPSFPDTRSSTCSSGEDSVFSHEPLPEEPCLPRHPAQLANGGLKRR
human FGFR1c expressed on L6 cells: residues 22-822 of P11362
FGFR1cD2D3 (ligand binding region of FGFR1c): residues 142-365 of P11362
UniProt Q86Z14: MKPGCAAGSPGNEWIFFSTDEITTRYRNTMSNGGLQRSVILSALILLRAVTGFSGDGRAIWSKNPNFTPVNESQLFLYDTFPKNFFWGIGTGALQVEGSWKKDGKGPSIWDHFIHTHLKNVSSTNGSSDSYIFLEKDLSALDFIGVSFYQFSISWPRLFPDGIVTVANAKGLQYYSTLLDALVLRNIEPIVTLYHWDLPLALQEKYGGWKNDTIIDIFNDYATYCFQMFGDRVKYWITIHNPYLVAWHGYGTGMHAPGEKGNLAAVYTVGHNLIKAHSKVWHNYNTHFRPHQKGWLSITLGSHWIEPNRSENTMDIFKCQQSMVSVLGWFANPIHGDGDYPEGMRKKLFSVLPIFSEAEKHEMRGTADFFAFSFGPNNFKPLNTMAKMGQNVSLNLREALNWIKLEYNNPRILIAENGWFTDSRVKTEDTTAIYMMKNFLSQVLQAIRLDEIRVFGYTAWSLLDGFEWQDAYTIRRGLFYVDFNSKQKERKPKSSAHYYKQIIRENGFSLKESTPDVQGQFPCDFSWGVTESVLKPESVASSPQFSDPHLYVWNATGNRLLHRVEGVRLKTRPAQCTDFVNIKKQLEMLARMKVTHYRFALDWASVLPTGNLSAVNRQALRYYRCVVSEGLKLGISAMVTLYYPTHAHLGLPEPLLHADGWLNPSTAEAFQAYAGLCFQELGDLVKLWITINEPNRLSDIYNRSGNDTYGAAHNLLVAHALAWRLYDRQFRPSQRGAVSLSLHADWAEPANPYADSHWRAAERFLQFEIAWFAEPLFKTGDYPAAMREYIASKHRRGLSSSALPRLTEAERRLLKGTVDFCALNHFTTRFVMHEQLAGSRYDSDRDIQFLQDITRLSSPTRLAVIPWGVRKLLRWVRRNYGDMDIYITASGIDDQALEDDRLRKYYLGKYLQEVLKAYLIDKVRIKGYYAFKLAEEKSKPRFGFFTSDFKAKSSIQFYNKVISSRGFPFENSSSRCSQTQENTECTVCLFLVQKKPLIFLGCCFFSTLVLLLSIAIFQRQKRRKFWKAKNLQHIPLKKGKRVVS

Tests used:
[1] = target: R203W/L194F-mutated FGF21 (FGF21WF) (human) (UniProt Q9NSA1); assay: MST: sKLB titrated into fluorescently labelled FGF21 R203W/L194F, plotted as fraction bound
[2] = target: FGFR1cD2D3 (ligand binding region of FGFR1c) (UniProt P11362); assay: MST: sKLB titrated into fluorescently labelled FGFR1cD2D3
[3] = target: human FGFR1c expressed on L6 cells (human) (UniProt P11362); assay: co-immunoprecipitation from L6 cell lysates: IP anti-FGFR, IB anti-β-Klotho
[4] = target: human FGFR1c expressed on L6 cells (human) (UniProt P11362); assay: co-immunoprecipitation from L6 cell lysates: IP anti-FGFR, IB anti-β-Klotho [left panel]
[5] = target: human FGFR1c expressed on L6 cells (human) (UniProt P11362); assay: co-immunoprecipitation with anti-FGFR1 antibody from L6 cells
[6] = target: extracellular domain of human β-Klotho (sKLB) (human) (UniProt Q86Z14); assay: MST competition: GST-FGF21CT titrated into a constant mixture of sKLB and fluorescently labelled FGF21 (competitor: fl-FGF21)

In the case of “extracellular domain of human β-Klotho (sKLB) (from UniProt Q86Z14 53-983) (receptor)”, the binding [1] is reported as “binds” and the binding [2] is reported as “binds”.

For “full-length human β-Klotho (KLB), C-terminal HA-tagged, on L6 cells (from UniProt Q86Z14 53-1044) (receptor)”, the binding [3] was “binds”, the binding [4] was “binds” and the binding [5] was “binds”.

With “GST-fused FGF21CT (GST-FGF21CT), wild type (from UniProt Q9NSA1 169-209)” the binding [6] was “binds”.
